Source: patent publication US7973032B2, “Staurosporine derivatives for use in alveolar rhabdomyosarcoma” (University of Zurich, priority 2005, dated 2011)

Tested on: PAX3/NCOA1

With `CO[C@@H]1[C@H](N(C)C(=O)c2ccccc2)C[C@H]2O[C@]1(C)n1c3ccccc3c3c4c(c5c6ccccc6n2c5c31)C(=O)NC4` [PKC412, N-[(9S,10R,11R,13R)-2,3,10,11,12,13-hexahydro-10-methoxy-9-methyl-1-oxo-9,13-epoxy-1H,9H-diindolo[1,2,3-gh:3′,2′,1′-Im]pyrrolo[3,4-j][1,7]benzodiazonin-11-yl]-N-methylbenzamide] the “inhibition with PAX3/NCOA1” value was “inhibition was also observed”.
